Results: the supplement of paper PMC8728848
The list shows a part of the results.

Assays:
Assay in all cases: glycan array binding signal (z-score within array); higher = stronger binding
Details in all cases: glycan notation: IUPAC condensed, linker removed
Fuc(a1-2)Gal = target: Fuc(a1-2)Gal
How it was run: (§1)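 Negative Z-scores can be read as non-binding. The Z-score is calculated within each array and then averaged across arrays of one protein sequence at different concentrations or buffers and across linkers. Arrays, 3228 in all, were curated from the Consortium for Functional Glycomics database and kept only where the protein sequence was available.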

Fuc(a1-2)Gal(b1-3)GalNAc = target: Fuc(a1-2)Gal(b1-3)GalNAc
How it was run: as §1

[1] = target: Fuc(a1-2)Gal(b1-3)GalNAc(a1-3)[Fuc(a1-2)]Gal(b1-4)Glc
How it was run: as §1

[2] = target: Fuc(a1-2)Gal(b1-3)GalNAc(a1-3)[Fuc(a1-2)]Gal(b1-4)GlcNAc
How it was run: as §1

[3] = target: Fuc(a1-2)Gal(b1-3)GalNAc(b1-3)Gal
How it was run: as §1

[4] = target: Fuc(a1-2)Gal(b1-3)GalNAc(b1-3)Gal(a1-4)Gal(b1-4)Glc
How it was run: as §1

[5] = target: Fuc(a1-2)Gal(b1-3)GalNAc(b1-4)[Neu5Ac(a2-3)]Gal(b1-4)Glc
How it was run: as §1

Fuc(a1-2)Gal(b1-3)GlcNAc = target: Fuc(a1-2)Gal(b1-3)GlcNAc
How it was run: as §1

[6] = target: Fuc(a1-2)Gal(b1-3)GlcNAc(b1-2)Man(a1-3)[Fuc(a1-2)Gal(b1-3)GlcNAc(b1-2)Man(a1-6)]Man(b1-4)GlcNAc(b1-4)GlcNAc
How it was run: as §1

[7] = target: Fuc(a1-2)Gal(b1-3)GlcNAc(b1-2)Man(a1-3)[Fuc(a1-2)Gal(b1-3)GlcNAc(b1-2)Man(a1-6)]Man(b1-4)GlcNAc(b1-4)[Fuc(a1-6)]GlcNAc
How it was run: as §1

[8] = target: Fuc(a1-2)Gal(b1-3)GlcNAc(b1-3)Gal(b1-4)Glc
How it was run: as §1

[9] = target: Fuc(a1-2)Gal(b1-3)GlcNAc(b1-3)GalNAc
How it was run: as §1

[10] = target: Fuc(a1-2)Gal(b1-3)GlcNAc(b1-3)[Fuc(a1-2)Gal(b1-3)GlcNAc(b1-6)]GalNAc
How it was run: as §1

[11] = target: Fuc(a1-2)Gal(b1-3)GlcNAc(b1-3)[Gal(b1-4)GlcNAc(b1-6)]Gal(b1-4)Glc
How it was run: as §1

[12] = target: Fuc(a1-2)Gal(b1-3)GlcNAc(b1-3)[Neu5Ac(a2-6)Gal(b1-4)GlcNAc(b1-6)]Gal(b1-4)Glc
How it was run: as §1

[13] = target: Fuc(a1-2)Gal(b1-3)GlcNAc6S
How it was run: as §1

[14] = target: Fuc(a1-2)Gal(b1-3)[Fuc(a1-4)]GlcNAc
How it was run: as §1

[15] = target: Fuc(a1-2)Gal(b1-3)[Fuc(a1-4)]GlcNAc(b1-2)Man(a1-3)[Fuc(a1-2)Gal(b1-3)[Fuc(a1-4)]GlcNAc(b1-2)Man(a1-3)]Man(b1-4)GlcNAc(b1-4)GlcNAc
How it was run: as §1

[16] = target: Fuc(a1-2)Gal(b1-3)[Fuc(a1-4)]GlcNAc(b1-2)Man(a1-3)[Fuc(a1-2)Gal(b1-3)[Fuc(a1-4)]GlcNAc(b1-2)Man(a1-6)]Man(b1-4)GlcNAc(b1-4)[Fuc(a1-6)]GlcNAc(b1-4)[Fuc(a1-6)]GlcNAc
How it was run: as §1

[17] = target: Fuc(a1-2)Gal(b1-3)[Fuc(a1-4)]GlcNAc(b1-3)[Fuc(a1-3)[Gal(b1-4)]GlcNAc(b1-6)]Gal(b1-4)Glc
How it was run: as §1

[18] = target: Fuc(a1-2)Gal(b1-3)[Fuc(a1-4)]GlcNAc(b1-3)[Gal(b1-4)GlcNAc(b1-6)]Gal(b1-4)Glc
How it was run: as §1

Fuc(a1-2)Gal(b1-4)Glc = target: Fuc(a1-2)Gal(b1-4)Glc
How it was run: as §1

Fuc(a1-2)Gal(b1-4)Glc6S = target: Fuc(a1-2)Gal(b1-4)Glc6S
How it was run: as §1

Fuc(a1-2)Gal(b1-4)GlcNAc = target: Fuc(a1-2)Gal(b1-4)GlcNAc
How it was run: as §1

[19] = target: Fuc(a1-2)Gal(b1-4)GlcNAc(b1-2)Man
How it was run: as §1

[20] = target: Fuc(a1-2)Gal(b1-4)GlcNAc(b1-2)Man(a1-3)[Fuc(a1-2)Gal(b1-4)GlcNAc(b1-2)Man(a1-6)]Man(b1-4)GlcNAc(b1-4)GlcNAc
How it was run: as §1

[21] = target: Fuc(a1-2)Gal(b1-4)GlcNAc(b1-2)Man(a1-3)[Fuc(a1-2)Gal(b1-4)GlcNAc(b1-2)Man(a1-6)]Man(b1-4)GlcNAc(b1-4)[Fuc(a1-6)]GlcNAc
How it was run: as §1

[22] = target: Fuc(a1-2)Gal(b1-4)GlcNAc(b1-2)[Fuc(a1-2)Gal(b1-4)GlcNAc(b1-4)]Man(a1-3)[Fuc(a1-2)Gal(b1-4)GlcNAc(b1-2)Man(a1-6)]Man(b1-4)GlcNAc(b1-4)GlcNAc
How it was run: as §1

[23] = target: Fuc(a1-2)Gal(b1-4)GlcNAc(b1-3)Gal(b1-4)GlcNAc
How it was run: as §1

[24] = target: Fuc(a1-2)Gal(b1-4)GlcNAc(b1-3)Gal(b1-4)GlcNAc(b1-2)Man(a1-3)[Fuc(a1-2)Gal(b1-4)GlcNAc(b1-3)Gal(b1-4)GlcNAc(b1-2)Man(a1-6)]Man(b1-4)GlcNAc(b1-4)GlcNAc
How it was run: as §1

[25] = target: Fuc(a1-2)Gal(b1-4)GlcNAc(b1-3)Gal(b1-4)GlcNAc(b1-3)Gal(b1-4)GlcNAc
How it was run: as §1

[26] = target: Fuc(a1-2)Gal(b1-4)GlcNAc(b1-3)GalNAc
How it was run: as §1

[27] = target: Fuc(a1-2)Gal(b1-4)GlcNAc(b1-3)[Fuc(a1-2)Gal(b1-4)GlcNAc(b1-6)]GalNAc
How it was run: as §1

[28] = target: Fuc(a1-2)Gal(b1-4)GlcNAc(b1-3)[Fuc(a1-3)[Gal(b1-4)]GlcNAc(b1-6)]Gal(b1-4)Glc
How it was run: as §1

[29] = target: Fuc(a1-2)Gal(b1-4)GlcNAc(b1-6)GalNAc
How it was run: as §1

[30] = target: Fuc(a1-2)Gal(b1-4)GlcNAc6S
How it was run: as §1

[31] = target: Fuc(a1-2)Gal(b1-4)[Fuc(a1-3)]GlcNAc
How it was run: as §1

[32] = target: Fuc(a1-2)Gal(b1-4)[Fuc(a1-3)]GlcNAc(b1-2)Man(a1-3)[Fuc(a1-2)Gal(b1-4)[Fuc(a1-3)]GlcNAc(b1-2)Man(a1-6)]Man(b1-4)GlcNAc(b1-4)[Fuc(a1-6)]GlcNAc
How it was run: as §1

[33] = target: Fuc(a1-2)Gal(b1-4)[Fuc(a1-3)]GlcNAc(b1-2)[Fuc(a1-2)Gal(b1-4)[Fuc(a1-3)]GlcNAc(b1-4)]Man(a1-3)[Fuc(a1-2)Gal(b1-4)[Fuc(a1-3)]GlcNAc(b1-2)Man(a1-6)]Man(b1-4)GlcNAc(b1-4)GlcNAc
How it was run: as §1

[34] = target: Fuc(a1-2)Gal(b1-4)[Fuc(a1-3)]GlcNAc(b1-3)Gal(b1-4)[Fuc(a1-3)]GlcNAc
How it was run: as §1

[35] = target: Fuc(a1-2)Gal(b1-4)[Fuc(a1-3)]GlcNAc(b1-3)Gal(b1-4)[Fuc(a1-3)]GlcNAc(b1-3)Gal(b1-4)[Fuc(a1-3)]GlcNAc
How it was run: as §1

[36] = target: Fuc(a1-2)Gal(b1-4)[Fuc(a1-3)]GlcNAc(b1-3)GalNAc
How it was run: as §1

[37] = target: Fuc(a1-2)Gal(b1-4)[Fuc(a1-3)]GlcNAc(b1-3)[Neu5Ac(a2-6)Gal(b1-4)GlcNAc(b1-6)]Gal(b1-4)Glc
How it was run: as §1

[38] = target: Fuc(a1-2)Gal3S(b1-4)GlcNAc
How it was run: as §1

[39] = target: Fuc(a1-2)Gal6S(b1-3)GlcNAc
How it was run: as §1

B1: Lb MiSSP8 (Laccaria bicolor) (protein)
chain: MYFHTLFACATLMLITTAHASPTVINSLDSRKADLNGDVEARHAADWRRDSDWRRDSDWRRDSDWRRDSD
Fuc(a1-2)Gal
  glycan array binding signal (z-score): 0.941
Fuc(a1-2)Gal(b1-3)GalNAc
  glycan array binding signal (z-score): -0.15
[1]
  glycan array binding signal (z-score): -0.661
[2]
  glycan array binding signal (z-score): -0.785
[3]
  glycan array binding signal (z-score): 1.16
[4]
  glycan array binding signal (z-score): 0.285
[5]
  glycan array binding signal (z-score): -0.488
Fuc(a1-2)Gal(b1-3)GlcNAc
  glycan array binding signal (z-score): -0.682
[6]
  glycan array binding signal (z-score): 1.36
[7]
  glycan array binding signal (z-score): 1.26
[8]
  glycan array binding signal (z-score): -0.461
[9]
  glycan array binding signal (z-score): -0.53
[10]
  glycan array binding signal (z-score): 0.34
[11]
  glycan array binding signal (z-score): 0.202
[12]
  glycan array binding signal (z-score): -0.267
[13]
  glycan array binding signal (z-score): -0.005
[14]
  glycan array binding signal (z-score): -0.26
[15]
  glycan array binding signal (z-score): 1.44
[16]
  glycan array binding signal (z-score): 0.637
[17]
  glycan array binding signal (z-score): -0.178
[18]
  glycan array binding signal (z-score): 0.098
Fuc(a1-2)Gal(b1-4)Glc
  glycan array binding signal (z-score): -0.205
Fuc(a1-2)Gal(b1-4)Glc6S
  glycan array binding signal (z-score): 0.354
Fuc(a1-2)Gal(b1-4)GlcNAc
  glycan array binding signal (z-score): -0.16
[19]
  glycan array binding signal (z-score): 0.016
[20]
  glycan array binding signal (z-score): 0.271
[21]
  glycan array binding signal (z-score): 0.699
[22]
  glycan array binding signal (z-score): 0.844
[23]
  glycan array binding signal (z-score): -0.509
[24]
  glycan array binding signal (z-score): 1.42
[25]
  glycan array binding signal (z-score): -0.613
[26]
  glycan array binding signal (z-score): 0.464
[27]
  glycan array binding signal (z-score): -0.405
[28]
  glycan array binding signal (z-score): 0.402
[29]
  glycan array binding signal (z-score): 1.09
[30]
  glycan array binding signal (z-score): -0.302
[31]
  glycan array binding signal (z-score): -0.15
[32]
  glycan array binding signal (z-score): 1.15
[33]
  glycan array binding signal (z-score): 1.27
[34]
  glycan array binding signal (z-score): -0.399
[35]
  glycan array binding signal (z-score): -0.219
[36]
  glycan array binding signal (z-score): 0.589
[37]
  glycan array binding signal (z-score): -0.578
[38]
  glycan array binding signal (z-score): -0.364
[39]
  glycan array binding signal (z-score): -0.316
